Results taken from patent US20030008845A1, “Conjugated nonadecadienoic acid compositions” (priority 2001, published 2003).

Test: Effects of CNA and CLA on body composition (diet feeding)
Format: in vivo
Conditions: female ICR mice, 0.3% in diet, 2 weeks
Source text: Female ICR mice (4-week-old) and semi-purified diets (TD94060, 99% basal mix) were purchased from Harlan Sprague Dawley (Madison, Wis.) and Harlan Teklad (Madison, Wis.), respectively. CLA was obtained from Natural Lipids Ltd AS, Hovdebygda, Norway; its composition was 88.7% CLA (c9, t11/t9, c11, 41.9%; t10, c12, 43.5%; t9, t11/10, t12, 1.5%; others, 1.8%) with the remainder as oleic acid, 5.6%; palmitic acid, 1.4%; and linoleic acid, 0.5%. CNA was kindly provided by the US Food and Drug Administration; it was 98.6% CNA (c10, t12, 42.3%; t11, c13, 48.0%; t10, t12/t11, t13, 5.1%; others, 3.2%) with the remainder as unreacted NA. CLA or CNA was added to diets at the expense of corn oil to maintain 5.5% fat. Diet was stored at −20° C. until use. Mice were housed individually in a windowless room with a 12-h light-dark cycle in strict accordance to guidelines established by the Research Animal Resources Center of University of Wisconsin-Madison. Diet and water, available ad libitum, were freshly provided three times per week.
After a 5 day adaptation period, mice were randomly separated into 3 groups and fed control diet, diet supplemented with 0.3% CLA, or diet supplemented with 0.3% CNA for 2 weeks. 0.3% of diet CLA is a sub-optimal dose for CLA's effects on body composition.
Results are mean±S.E. (n=6).

Substance | total feed intake per group
Conjugated linoleic acid [CLA, reference compound] | 51.0 g
conjugated nonadecadienoic acid [CNA] | 47.1 g
